From patent US20030124568A1 come the findings set out here.

Chains of the proteins cited; added tags and fusions are not shown. Lines headed by an entry give the natural chain unless they say otherwise; changes in a name come on top.
UniProt P63251: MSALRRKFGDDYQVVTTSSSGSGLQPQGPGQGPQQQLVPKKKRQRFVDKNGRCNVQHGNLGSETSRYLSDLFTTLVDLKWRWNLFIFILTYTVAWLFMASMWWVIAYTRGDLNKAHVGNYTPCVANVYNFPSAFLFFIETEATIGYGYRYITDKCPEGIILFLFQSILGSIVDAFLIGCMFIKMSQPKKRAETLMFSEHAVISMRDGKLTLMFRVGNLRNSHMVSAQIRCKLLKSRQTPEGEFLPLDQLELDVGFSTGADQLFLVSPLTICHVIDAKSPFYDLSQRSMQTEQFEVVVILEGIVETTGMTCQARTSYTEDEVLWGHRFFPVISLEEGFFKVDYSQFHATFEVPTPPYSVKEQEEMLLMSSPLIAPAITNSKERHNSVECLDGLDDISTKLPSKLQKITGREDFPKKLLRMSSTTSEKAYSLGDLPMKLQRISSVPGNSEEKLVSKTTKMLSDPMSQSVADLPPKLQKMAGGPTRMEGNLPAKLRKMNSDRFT

In assay [1] the target is T1, GIRK1-NC-bait (GAL4-DNA binding domain fused to the N terminus of the GIRK1 subunit, a linker sequence GSSGSS and the C terminus of GIRK1) (rat) (UniProt P04386+P63251). Briefly: yeast two-hybrid cotransformation.
The target in assay [2] is T1, GIRK1-NC-bait (GAL4-DNA binding domain fused to the N terminus of the GIRK1 subunit, a linker sequence GSSGSS and the C terminus of GIRK1) (rat). As to the kind of experiment: yeast two-hybrid cotransformation in Y190.
The target is the same in assay [3]. Briefly: yeast two-hybrid library screen in Y190 with GIRK1-NC-bait.

Results are given in words; binding and its absence hold for the method and conditions named. Some binding calls cover weakened binding; strength is not graded here.

B1: charged domain of the Mogli protein (SEQ ID NO: 6; amino acids 237-395 in SEQ ID NO: 2) cloned into pPC86 (protein, not shown: small tags and cut ends)
chain: GSYKGSDCSPVMRRSGRYMSCGENHGVKPPNPEQYLTPLQQKEVTVRHLRTKLKESERRLHERESEIMELKSQLARMREDWIEEECHRVEAQLALKEARKEIKQLKQVIETMRSSLADKDKGIQKYFVDINIQNKKLESLLQSMEMAHNSSLRDELCLD
For the molecule B1, the binding result in assay [1] and in assay [2] was “binds” throughout.

B2: GIRK1NCprey3 (nucleotides 500-1193 of SEQ ID NO: 1, fragment of rat Mogli, in pPC86) (protein)
chain: RIGMVGEGNIQSARYKKESKGGIIKPGSEADFSSSSSTGSISAPEVHMSTTGNKRASFSRNRGPHGRSNGAPSHKSGSSPPSPREKDLVSMLCRNPLSPSNIHPSYAPSSPSSSNSGSYKGSDCSPVMRRSGRYMSCGENHGVKPPNPEQYLTPLQQKEVTVRHLRTKLKESERRLHERESEIMELKSQLARMREDWIEEECHRVEAQLALKEARKEIKQLKQVIETMRS
Take B2: the binding entry in assay [2] and in assay [3] was “binds” each time.

B3: GIRK1NCprey2 (nucleotides 1011-1349 of SEQ ID NO: 1, fragment of rat Mogli, in pPC86) (protein)
chain: ESERRLHERESEIMELKSQLARMREDWIEEECHRVEAQLALKEARKEIKQLKQVIETMRSSLADKDKGIQKYFVDINIQNKKLESLLQSMEMAHNSSLRDELCLDFSFDSPE
In the case of B3, the binding result in assay [2] and in assay [3] was “binds” throughout.
